Source: PubChem BioAssay AID720711 (National Center for Advancing Translational Sciences (NCATS), 2013)
Out of some 360,000 compounds screened, about 290 (0.081%) were called active. The shares of active, inactive and inconclusive entries below differ from those in the screen. Calls come from the whole dose curve; as a rule, active = well fitted activation curve with a large enough effect; inconclusive = small, poorly fitted or top-dose-only effect; inactive = no such curve, though single readings can be large or run the other way. Potencies of inconclusive entries are doubtful fits and often do not repeat.

Protein sequences, listed by entry. Tags and fused reporters are not part of them. Lines headed by an entry give the natural chain unless they say otherwise; changes in a name come on top.
UniProt Q8WZA2: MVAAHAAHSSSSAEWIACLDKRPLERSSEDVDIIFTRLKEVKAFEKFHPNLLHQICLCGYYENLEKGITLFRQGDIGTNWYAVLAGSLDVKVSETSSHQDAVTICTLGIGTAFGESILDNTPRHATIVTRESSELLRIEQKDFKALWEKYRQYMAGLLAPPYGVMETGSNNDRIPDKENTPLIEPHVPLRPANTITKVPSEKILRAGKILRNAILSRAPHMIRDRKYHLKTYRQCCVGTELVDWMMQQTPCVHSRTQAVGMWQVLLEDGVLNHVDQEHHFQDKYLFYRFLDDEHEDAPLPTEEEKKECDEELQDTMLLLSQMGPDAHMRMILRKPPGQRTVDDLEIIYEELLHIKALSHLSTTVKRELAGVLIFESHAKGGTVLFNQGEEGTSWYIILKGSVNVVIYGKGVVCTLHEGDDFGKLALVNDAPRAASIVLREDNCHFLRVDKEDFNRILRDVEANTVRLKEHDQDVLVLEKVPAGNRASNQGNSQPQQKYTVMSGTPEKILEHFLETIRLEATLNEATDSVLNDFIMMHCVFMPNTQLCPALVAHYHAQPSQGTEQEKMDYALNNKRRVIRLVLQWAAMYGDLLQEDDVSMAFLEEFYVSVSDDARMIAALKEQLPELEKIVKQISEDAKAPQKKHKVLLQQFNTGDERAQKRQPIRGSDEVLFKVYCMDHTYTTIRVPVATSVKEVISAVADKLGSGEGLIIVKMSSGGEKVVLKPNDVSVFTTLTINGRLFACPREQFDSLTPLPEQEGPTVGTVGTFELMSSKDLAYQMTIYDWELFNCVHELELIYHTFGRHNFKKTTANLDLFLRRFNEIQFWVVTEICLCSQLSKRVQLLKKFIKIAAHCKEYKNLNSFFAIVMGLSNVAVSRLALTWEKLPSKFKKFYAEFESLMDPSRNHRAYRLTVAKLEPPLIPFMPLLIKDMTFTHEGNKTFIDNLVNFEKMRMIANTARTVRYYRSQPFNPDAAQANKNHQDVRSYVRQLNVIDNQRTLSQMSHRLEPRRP

Molecular target: Rap guanine nucleotide exchange factor 4 (Homo sapiens) (UniProt Q8WZA2)
Assay: qHTS for Agonist of cAMP-regulated guanine nucleotide exchange factor 4 (EPAC2): primary screen; note: nearly all actives have a fitted effect of over 50% in size
Conditions: biochemical qHTS; Potency: EPAC2 activation unless noted; activation: at 154 µM (top of the series), 100% = 6.5 mM cAMP response unless noted
From the text: In multi-cellular eukaryotic organisms, the effects of cAMP are transduced by two ubiquitously-expressed intracellular cAMP receptors, the classic protein kinase A/cAMP-dependent protein kinase (PKA/cAPK) and the more recently discovered exchange protein directly activated by cAMP/cAMP-regulated guanine nucleotide exchange factor (EPAC/cAMP-GEF). Both PKA and EPAC are ubiquitously expressed in all tissues, and an increase in intracellular cAMP levels will lead to the activation of both PKA and EPAC. Therefore, careful dissections of the individual role and relative contribution of EPAC and PKA within the overall cAMP signaling in various model systems are critical for further elucidating the mechanism of cAMP signaling. To date no EPAC-specific antagonists and agonist, as well as isoform-specific agonists have been reported, and developing EPAC-specific pharmacological probes to determine the physiological functions that EPAC play in the overall cAMP-mediated signaling remains a major challenge within the research field. Furthermore, identified regulators of EPAC may lead to new mechanism-based therapeutic strategies specifically targeting the EPAC / cAMP-signaling components as EPAC has been implicated to play important roles in major human pathological conditions such as diabetes, heart disease, and cancer.
This qHTS will be used to screen the Molecular Libraries Small Molecule Repository (MLSMR) as a concentration-titration series using the NCGC unique quantitative screening (qHTS) platform to find activators for EPAC2. In addition, this assay will also be used as a counterscreen for the EPAC1 qHTS. This fluorescent based assay is developed and validated for EPAC2 that measures exchange using EPAC effector Rap1 complex with BODIPY-GDP, a GDP analog with a tethered fluorophores. Activators are identified by monitoring the change in fluorescence signal as the exchanged free BODIPY-GDP has a reduced fluorescence compared to Rap1-bound BODIPY-GDP. […] in signal (activation) is the desired outcome for the EPAC2 agonist while no activity in this assay is desired for the EPAC1 agonist counterscreen.
[1] de Rooij, J., Zwartkruis, F. J., Verheijen, M. H., Cool, R. H., Nijman, S. M., Wittinghofer, A., and Bos, J.L. (1998) Nature 396, 474-477
[2] Kawasaki, H., Springett, G. M., Mochizuki, N., Toki, S., Nakaya, M., Matsuda, M., Housman, D. E., and Graybiel, A. M. (1998) Science 282, 2275-2279
NIH Chemical Genomics Center [NCGC]
NIH Molecular Libraries Probe Centers Network [MLPCN]
Assay Submitter (PI): Xiaodong Cheng, The University of Texas, Medical Branch
Briefly, three uL of reagents (100 nM EPAC2, 250 nM RAP1B-BODIPY-GDP, 50 uM GDP) were dispensed into a 1536-well Greiner black solid-bottom medium binding assay plate. Controls and test compounds (23 nL) were transferred to the plate via a Kalypsys pin tool equipped with a 1536-pin array. The plates were centrifuged at 1,000 rpm for 15 seconds followed by 5 minute incubation at room temperature. The assay plates were read at 5 minute intervals for 30 minutes in the ViewLux plate reader using 480nm excitation and 540nm emission filters. The results were normalized to the agonist positive control of 6.5 mM cAMP.
Potency is the fitted concentration of half-maximal effect.

| Compound | Potency | activation |
| --- | --- | --- |
| Nc1nc(NCC(=O)O)nc(NCc2ccccc2)c1[N+](=O)[O-] | inconclusive: 112 µM [activator, single point] | – |
| COc1ccc(C(=O)N2CCN(c3ccc(NC(=O)Cc4ccccc4)cc3)CC2)cc1 | – | inactive: 6.85% |
| C#CCOCCOCCOCCNc1nc(N2CCN(C(=O)CCCCCCCCCCNC(=O)[C@H](CCCCN)n3cc(CCO)nn3)CC2)nc(N2CCN(C(=O)CCCCCCCCCCNC(=O)[C@H](CCCCN)n3cc(C[C@@H](C)CC)nn3)CC2)n1 | inconclusive: 112 µM [activator, single point] | – |
| COc1ccc2nc3ccccc3[n+]([O-])c2c1 | inconclusive: 112 µM [activator, single point] | – |
| COC(=O)CSc1nc2c(c(=O)n(C)c(=O)n2C)n1CCCc1ccccc1 | inconclusive: 126 µM [activator, single point] | – |
| COc1ccccc1NC(=O)/C(C#N)=C/c1cc([N+](=O)[O-])ccc1N1CCCC1 | inconclusive: 112 µM [activator, single point] | – |
| O=C(c1cc2cc(Cl)ccc2oc1=O)N1CCOCC1 | – | inactive: -2.61% |
| CC(=O)N1CCCN(C(=O)c2ccc3nc(Cc4ccccc4F)oc3c2)CC1 | – | inactive: -0.985% |
| O=C(N/N=C/c1cccnc1)c1ccc(NC(=O)c2cccc(Cl)c2)cc1 | inconclusive: 89.1 µM [activator, partial curve] | – |
| COc1cccc(OC)c1C(=O)Nc1sc2c(c1C(N)=O)CCN(Cc1ccccc1)C2 | inconclusive: 63.1 µM [activator, partial curve] | – |
| O=C(Cc1c(Cl)cccc1Cl)N/N=C/c1cccnc1 | – | inactive: 6.55% |
| COCCCNc1c2c3c(cccc3[nH]c1=O)C(=O)c1ccccc1-2 | active: 100 µM | – |
| O=C(NN=Cc1c(O)ccc2ccccc12)c1ccncc1 | inconclusive: 112 µM [activator, partial curve] | – |
| CC(=O)Nc1ccc(Sc2ncccc2C(=O)Nc2cc(Cl)cc(Cl)c2)cn1 | – | inactive: -4.52% |
| COc1ccccc1NC(=S)NC(=O)/C=C/c1ccco1 | – | inactive: 23% |
| N#C/C(=C\c1cn(Cc2ccc(C#N)cc2)c2ccccc12)C(=O)NCc1cccs1 | active: 79.4 µM | – |
| CCn1c(-c2cccnc2Cl)nc2cc(Cl)c(Cl)cc21 | inconclusive: 50.1 µM [activator, single point] | – |
| CC(C)(C#CCN1CCCCC1)OCCOC(c1ccccc1)c1ccccc1 | inconclusive: 35.5 µM [activator, single point] | – |
| COc1ccc(C(=O)/C=C/c2cccc(OCc3ccccc3)c2)cc1CSCC(=O)O | – | inactive: 6.32% |
| c1ccc2c(NC3C4CC5CC(C4)CC3C5)nc(N3CCOCC3)nc2c1 (configuration not stated) | inconclusive: 63.1 µM [activator, partial curve] | – |
| Cn1c(Cc2cccs2)nnc1SCc1nc2ccccc2[nH]1 | active: 10 µM | – |
| O=C(Nc1cccc(C(=O)N2CCOCC2)c1)c1ccccc1Cl | inconclusive: 126 µM [activator, single point] | – |
| O=C(N/C=C/c1ccco1)NCc1ccccc1 | – | inactive: 9.4% |
| CN(Cc1ccccc1)S(=O)(=O)c1ccc(Cl)c(C(=O)NCc2ccc3c(c2)OCO3)c1 | inconclusive: 112 µM [activator, single point] | – |

| Compound | Potency | activation |
| --- | --- | --- |
| CCCSc1nc2c3c(sc2c(=O)[nH]1)CC(C)(CC)OC3 (configuration not stated) | – | inactive: -6.24% |
| O=[N+]([O-])c1ccc(CSc2nc3ccccc3[nH]2)cc1 | – | inactive: 1.24% |
| COc1ccc(CCC(=O)Nc2c(-c3ccc(N(C)C)cc3)[nH][nH]c2=O)cc1 | inconclusive: 31.6 µM [activator, full curve] | – |
| COC(=O)[C@]1(Cc2ccccc2)N[C@H](CN(C)C(=O)NC(C)C)[C@@H]2C(=O)N(Cc3ccccc3)C(=O)[C@@H]21 | inconclusive: 112 µM [activator, single point] | – |
| O=C(O)c1ccc(NC2=C/C(=N/S(=O)(=O)c3cccs3)c3ccccc3C2=O)cc1 | – | inactive: 18.3% |
| Cc1cnc(C(=O)OCC(=O)NCc2ccc3c(c2)OCO3)cn1 | inconclusive: 126 µM [activator, single point] | – |
| COc1cccc(NC(=O)c2ccc(S(=O)(=O)N3CCCCC3)cc2)c1 | inconclusive: 35.5 µM [activator, single point] | – |
| COc1cc(OC)c(-c2c3cc(O)c(=O)cc-3oc3cc(O)c(O)cc23)cc1OC | active: 112 µM | – |
| Cc1nc2cc(NC(=O)C3(C)CCCN(C(C)C)C3)ccc2o1 (configuration not stated) | – | inactive: -4.19% |
| Cn1c2ccccc2c2cc(/C=N/NC(=O)c3cc(O)ccc3O)ccc21 | – | inactive: 7.46% |
| O=C(C(=Cc1ccccc1)CN1CCCCC1)c1ccccc1 | inconclusive: 112 µM [activator, single point] | – |
| CC(C1CC1)N(C(=O)NC1CCS(=O)(=O)C1)c1ccccc1 (configuration not stated) | inconclusive: 126 µM [activator, single point] | – |
| COc1ccccc1OCCCN1C(=O)C(=O)c2cccc(C)c21 | inconclusive: 112 µM [activator, partial curve] | – |
| CCC(=C/c1sc2ccc3ccccc3c2[n+]1C)/C=C1\Sc2ccc3ccccc3c2N1C | inconclusive: 15.8 µM [activator, partial curve, poor fit] | – |
| Cc1nnc(SCC(=O)N2CCN(S(=O)(=O)c3ccc(Cl)cc3)CC2)[nH]c1=O | – | inconclusive: -7.45% [activator] |
| COc1ccc(NC(=S)N(CCc2c(C)[nH]c3ccccc23)Cc2cccnc2)cc1 | inconclusive: 31.6 µM [activator, single point] | – |
| Clc1cccc(Cl)c1CON/C=N/c1ncnc2sccc12 | inconclusive: 112 µM [activator, single point] | – |
| CCN(c1ccc(NC(=O)CCc2nc3sc4c(c3c(=O)[nH]2)CCCC4)cc1)C(C)C | inconclusive: 126 µM [activator, single point] | – |
| O=C(OCc1ccc(F)cc1)c1ccc2ccccc2n1 | inconclusive: 126 µM [activator, partial curve, poor fit] | – |
| O=C(CS(=O)(=O)c1ccccc1)Nc1ccc(Cl)cn1 | – | inactive: 5.38% |
| CC(=O)c1ccc(N2CCN(C(=O)/C=C/c3ccc4ccccc4n3)CC2)cc1 | inconclusive: 79.4 µM [activator, partial curve] | – |
| Cc1c(N/N=C(\C#N)C(=O)c2ccc(Cl)cc2)c(=O)n(-c2ccccc2)n1C | inconclusive: 100 µM [activator, single point] | – |
| Clc1ccc(SCNc2ccccc2Cl)cc1 | inconclusive: 31.6 µM [activator, single point] | – |
| Cc1[nH]c(=O)nc(NN=Cc2ccc(Cl)cc2)c1C(=O)Nc1ccc(Cl)cc1 | active: 31.6 µM | – |

| Compound | Potency | activation |
| --- | --- | --- |
| COc1ccccc1N(CC(=O)Nc1cc(C)on1)S(=O)(=O)c1ccc(Cl)cc1 | active: 3.98 µM | – |
| O=C(Nc1nc2ccc(Cl)cc2s1)C1CCCO1 (configuration not stated) | active: 7.94 µM | – |
| Cc1nc(C(F)(F)F)c(C(=O)N=CN(C)C)s1 | inconclusive: 112 µM [activator, single point] | – |
| COc1ccccc1/C=C/C=c1\sc2nc(=O)c(Cc3ccccc3)nn2c1=O | inconclusive: 126 µM [activator, single point] | – |
| Nc1nc(N2CCN(Cc3ccccc3)CC2)n[nH]1 | – | inactive: 6.88% |
| COc1cccc(/C=N/NC(=O)c2cccc(N3CCCC3=O)c2)c1 | – | inactive: 2.89% |
| Cc1cccc(NC(=O)/C=C/c2ccc([N+](=O)[O-])s2)c1 | – | inactive: 5.5% |
| CCOC1=C2[C@H](c3ccc(Cl)cc3)N(S(=O)(=O)c3ccc(C)cc3)C[C@H]2n2c(=O)n(-c3ccccc3)c(=O)n2C1 | – | inactive: 0.543% |
| CC1(C)CNc2cc(N)ccc2S1 | – | inactive: 1.33% |
| O=C(c1cccc(Cl)c1)N1CCN(Cc2ccncc2)CC1 | – | inactive: 0% [at 15.6 µM, 100% = 6.5 mM cAMP response] |
| CCOc1c(C(N)=O)c(-c2ccccc2)c2c(=O)[nH]c3ccccc3n12 | inconclusive: 100 µM [activator, single point] | – |
| Cc1ccc(NC(=O)c2ccc(S(=O)(=O)N3CCOCC3)cc2)nc1 | – | inactive: -1.43% |
| C[C@H](CO)N1C[C@H](C)[C@@H](CN(C)S(=O)(=O)c2ccc(Oc3ccccc3)nc2)OCc2cn(nn2)CCCC1=O | – | inactive: 9.39% |
| COc1ccc([C@H]2CC(=O)C=C(c3ccc(C)cc3)C2)cc1 | inconclusive: 79.4 µM [activator, partial curve] | – |
| CSc1nc(C)c2c(c1C#N)CCCC2 | – | inconclusive: 81% [activator] [at 15.6 µM, 100% = 6.5 mM cAMP response] |
| O=C(Nc1ccccc1)C1=C[C@H](c2coc3ccccc3c2=O)C[C@H](OCCCCO)O1 | inconclusive: 10 µM [activator, full curve, poor fit] | – |
| CC(NC(=S)NC1CCCCC1)c1ccc(C(C)(C)C)cc1 (configuration not stated) | – | inactive: -8.69% |
| O=S(=O)(c1ccc(F)c2ccccc12)N1CCCCC1 | inconclusive: 100 µM [activator, partial curve] | – |
| O=C(c1cc(C2CC2)nn1-c1ccccc1)N1CCN(c2ccccc2O)CC1 | – | inactive: 3.55% |
| CCS(=O)(=O)NCc1cn2c(C)csc2n1 | inconclusive: 126 µM [activator, single point] | – |
| Cc1ccc(S(=O)(=O)N/N=C\c2ccccc2OCc2ccccc2)cc1 | inconclusive: 112 µM [activator, single point] | – |
| c1csc(-c2nc3ccccn3c2NC2CCCCC2)c1 | – | inactive: -4.49% |
| OCCN(Cc1ccccc1)Cc1ccc(Cl)cc1Cl | inconclusive: 63.1 µM [activator, partial curve] | – |
| Cc1csc(SCC(=O)NC23CC4CC(CC(C4)C2)C3)n1 | – | inconclusive: 37.7% [activator] [at 15.6 µM, 100% = 6.5 mM cAMP response] |

Individual results from the list.
`CC(=O)N1CCCN(C(=O)c2ccc3nc(Cc4ccccc4F)oc3c2)CC1` | activation: inactive: -0.985%
`c1csc(-c2nc3ccccn3c2NC2CCCCC2)c1` | activation: inactive: -4.49%
`O=C(C(=Cc1ccccc1)CN1CCCCC1)c1ccccc1` | Potency: inconclusive: 112 µM [activator, single point]
